Laboratory results reported in patent publication US20070059829A1.
No constants are given. Whether binding was seen depends on the method and setting. In cells and extracts the contact can be indirect. Some results given as binding are weak or reduced against the parent protein; the word gives no strength. For some of these results: Tags and fused reporters may be left off the sequences shown.

Amino acid sequences for entries named in this document (tags omitted). A change or cut given only in a name is not applied to a line headed by its entry. Residues count along the entry.
UniProt O75581, residues 20-1370: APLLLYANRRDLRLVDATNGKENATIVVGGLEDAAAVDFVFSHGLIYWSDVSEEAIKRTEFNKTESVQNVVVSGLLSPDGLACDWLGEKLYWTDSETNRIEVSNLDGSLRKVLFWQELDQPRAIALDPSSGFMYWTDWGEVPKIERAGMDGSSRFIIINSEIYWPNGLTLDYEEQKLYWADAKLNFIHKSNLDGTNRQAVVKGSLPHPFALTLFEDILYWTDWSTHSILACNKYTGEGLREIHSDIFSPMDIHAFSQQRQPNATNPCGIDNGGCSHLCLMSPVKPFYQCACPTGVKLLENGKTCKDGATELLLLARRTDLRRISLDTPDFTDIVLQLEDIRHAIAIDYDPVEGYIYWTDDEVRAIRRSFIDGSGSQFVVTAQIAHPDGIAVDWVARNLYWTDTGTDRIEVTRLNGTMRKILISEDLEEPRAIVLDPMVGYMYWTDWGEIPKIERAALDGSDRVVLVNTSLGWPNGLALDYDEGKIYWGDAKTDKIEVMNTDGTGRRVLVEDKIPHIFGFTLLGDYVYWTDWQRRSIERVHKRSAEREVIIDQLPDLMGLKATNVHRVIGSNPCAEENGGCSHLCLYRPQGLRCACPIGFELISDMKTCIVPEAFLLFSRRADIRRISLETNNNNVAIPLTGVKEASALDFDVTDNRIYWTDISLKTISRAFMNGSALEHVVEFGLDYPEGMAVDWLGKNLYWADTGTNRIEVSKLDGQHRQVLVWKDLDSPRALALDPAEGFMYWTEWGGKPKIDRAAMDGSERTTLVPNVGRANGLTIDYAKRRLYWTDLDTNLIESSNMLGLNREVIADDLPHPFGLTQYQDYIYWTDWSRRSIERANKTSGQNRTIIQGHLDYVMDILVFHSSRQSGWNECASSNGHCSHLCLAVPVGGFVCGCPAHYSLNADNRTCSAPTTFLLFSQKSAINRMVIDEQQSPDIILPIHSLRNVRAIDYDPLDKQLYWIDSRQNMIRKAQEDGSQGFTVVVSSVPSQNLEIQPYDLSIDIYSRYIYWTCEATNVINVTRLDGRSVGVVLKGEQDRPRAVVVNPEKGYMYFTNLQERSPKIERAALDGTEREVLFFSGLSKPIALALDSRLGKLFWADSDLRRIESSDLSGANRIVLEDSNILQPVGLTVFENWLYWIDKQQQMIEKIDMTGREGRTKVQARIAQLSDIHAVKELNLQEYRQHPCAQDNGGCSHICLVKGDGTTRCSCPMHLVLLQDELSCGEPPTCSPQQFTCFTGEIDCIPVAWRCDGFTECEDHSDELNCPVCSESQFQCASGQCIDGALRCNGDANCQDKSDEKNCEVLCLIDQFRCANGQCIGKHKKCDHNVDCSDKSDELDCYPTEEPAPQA
UniProt Q9Z132: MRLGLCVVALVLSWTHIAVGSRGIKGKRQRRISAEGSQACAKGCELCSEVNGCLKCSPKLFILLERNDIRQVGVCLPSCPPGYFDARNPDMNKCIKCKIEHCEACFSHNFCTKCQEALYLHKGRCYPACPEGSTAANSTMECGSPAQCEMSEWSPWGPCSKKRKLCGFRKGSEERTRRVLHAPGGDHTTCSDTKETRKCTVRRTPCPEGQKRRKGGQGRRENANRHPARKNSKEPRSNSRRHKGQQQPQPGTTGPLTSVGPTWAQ

How the values were obtained:
[1] = biological target: human immunoglobin Fc fusion form of the extracellular domain of human LRP6 (human) (UniProt O75581); assay: cell-free pull-down on protein A-sepharose beads, western blot
[2] = biological target: T1, human immunoglobin Fc fusion form of the cysteine-rich domain (CRD) of mouse Fzd8 (mouse; human) (UniProt Q61091); assay: as above
T1 sequence (looked up): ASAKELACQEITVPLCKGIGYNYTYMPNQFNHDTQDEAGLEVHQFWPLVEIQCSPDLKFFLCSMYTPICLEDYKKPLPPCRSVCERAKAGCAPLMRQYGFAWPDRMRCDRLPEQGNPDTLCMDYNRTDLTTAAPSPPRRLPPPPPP

[3] = biological target: human immunoglobin Fc fusion form of the extracellular domain of human LRP6 (human) (UniProt O75581); assay: cell-free pull-down (FIG. 6B legend)
[4] = biological target: T1, human immunoglobin Fc fusion form of the cysteine-rich domain (CRD) of mouse Fzd8 (mouse; human); assay: cell-free pull-down (FIG. 6B legend)

binding [1]: binds
binding [2]: binds
binding [3]: binds
binding [4]: binds
Substance: Histidine-tagged R-spondin1 protein (from UniProt Q9Z132 21-265) (ligand)
